Results are given in words; binding and its absence hold for the method and conditions named. Tags and fused reporters may be left off the sequences shown.
Molecular target: T1, BD-AtBI-1 (full-length Arabidopsis Bax inhibitor-1 in pGBKT7) (Arabidopsis (Arabidopsis thaliana)) (UniProt Q9LD45)
T1 sequence: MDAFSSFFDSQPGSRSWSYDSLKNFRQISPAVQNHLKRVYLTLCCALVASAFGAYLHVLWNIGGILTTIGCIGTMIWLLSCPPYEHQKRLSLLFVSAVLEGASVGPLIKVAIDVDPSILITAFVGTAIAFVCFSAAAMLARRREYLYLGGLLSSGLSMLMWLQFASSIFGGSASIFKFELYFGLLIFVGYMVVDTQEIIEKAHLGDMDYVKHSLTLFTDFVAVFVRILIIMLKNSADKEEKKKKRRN
Assay: two-hybrid; pairs of BD (pGBKT7) and AD (pGADT7) fusions coexpressed in AH109 yeast cells; selected on SD/-Trp-Leu-His-Ade or SD/-Trp-Leu-His-Ade/X-alpha-gal medium for 5 days

Chains of the proteins cited; added tags and fusions are not shown.
UniProt Q38931: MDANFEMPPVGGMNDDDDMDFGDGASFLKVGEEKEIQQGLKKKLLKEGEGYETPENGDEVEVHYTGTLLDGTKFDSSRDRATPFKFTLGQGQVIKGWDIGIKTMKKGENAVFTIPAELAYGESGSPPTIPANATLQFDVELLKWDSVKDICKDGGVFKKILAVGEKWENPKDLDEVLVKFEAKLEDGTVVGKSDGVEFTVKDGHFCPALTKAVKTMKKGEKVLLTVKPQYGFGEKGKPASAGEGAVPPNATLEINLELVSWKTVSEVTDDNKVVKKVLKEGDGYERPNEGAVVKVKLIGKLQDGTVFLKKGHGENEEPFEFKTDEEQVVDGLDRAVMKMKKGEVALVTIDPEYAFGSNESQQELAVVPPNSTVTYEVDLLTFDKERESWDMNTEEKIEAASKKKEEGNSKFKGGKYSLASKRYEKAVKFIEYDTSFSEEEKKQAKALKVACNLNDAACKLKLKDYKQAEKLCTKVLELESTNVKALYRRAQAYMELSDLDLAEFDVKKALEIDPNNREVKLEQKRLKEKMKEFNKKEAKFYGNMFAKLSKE

“AD-ROF1 (full-length Arabidopsis AtFKBP62 in pGADT7) (from UniProt Q38931 1-551)” was tested, and the binding was “no binding”.
